Laboratory results published in publication PMC12078756.

Sequences of proteins named here, by UniProt entry; tags and fusion partners are left off. A change or cut given only in a name is not applied to a line headed by its entry. A line that says so, or that is headed by a name, gives the form on record, which may keep a tag or linker.
GFP-tagged IFT20 (intraflagellar transport protein 20) (Q8IY31, form named): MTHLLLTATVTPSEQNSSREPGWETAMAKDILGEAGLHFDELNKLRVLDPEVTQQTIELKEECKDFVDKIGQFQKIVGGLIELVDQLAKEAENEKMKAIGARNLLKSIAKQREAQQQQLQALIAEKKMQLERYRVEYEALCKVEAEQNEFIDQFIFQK

Biological target: GFP-tagged IFT20 (intraflagellar transport protein 20) (human) (UniProt Q8IY31)
Experiment: affinity purification with mass spectrometry; HEK293T cells transfected with GFP or GFP-IFT20, lysed; GFP or GFP-IFT20 pulled down with GFP magnetic beads and analysed by mass spectrometry

binding: binds
B1: IFT88 (endogenous, found by mass spectrometry) (protein, UniProt Q13099 1-824)
chain: MMQNVHLAPETDEDDLYSGYNDYNPIYDIEELENDAAFQQAVRTSHGRRPPITAKISSTAVTRPIATGYGSKTSLASSIGRPMTGAIQDGVTRPMTAVRAAGFTKAALRGSAFDPLSQSRGPASPLEAKKKDSPEEKIKQLEKEVNELVEESCIANSCGDLKLALEKAKDAGRKERVLVRQREQVTTPENINLDLTYSVLFNLASQYSVNEMYAEALNTYQVIVKNKMFSNAGILKMNMGNIYLKQRNYSKAIKFYRMALDQVPSVNKQMRIKIMQNIGVTFIQAGQYSDAINSYEHIMSMAPNLKAGYNLTICYFAIGDREKMKKAFQKLITVPLEIDEDKYISPSDDPHTNLVTEAIKNDHLRQMERERKAMAEKYIMTSAKLIAPVIETSFAAGYDWCVEVVKASQYVELANDLEINKAVTYLRQKDYNQAVEILKVLEKKDSRVKSAAATNLSALYYMGKDFAQASSYADIAVNSDRYNPAALTNKGNTVFANGDYEKAAEFYKEALRNDSSCTEALYNIGLTYEKLNRLDEALDCFLKLHAILRNSAEVLYQIANIYELMENPSQAIEWLMQVVSVIPTDPQVLSKLGELYDREGDKSQAFQYYYESYRYFPCNIEVIEWLGAYYIDTQFWEKAIQYFERASLIQPTQVKWQLMVASCFRRSGNYQKALDTYKDTHRKFPENVECLRFLVRLCTDLGLKDAQEYARKLKRLEKMKEIREQRIKSGRDGSGGSRGKREGSASGDSGQNYSASSKGERLSARLRALPGTNEPYESSSNKEIDASYVDPLGPQIERPKTAAKKRIDEDDFADEELGDDLLPE

Results are given in words; binding and its absence hold for the method and conditions named. In cells and extracts the contact can be indirect. These calls come from enrichment with a bait or labelling near it, and not all partners need be listed.
